Experimental data from PubChem BioAssay AID1347075 (National Center for Advancing Translational Sciences (NCATS), 2019).
Values joined by “and” are separate entries in the source; they are usually repeats but may differ in a detail not shown here. Equal values may be shown once. The campaign covered roughly 400,000 compounds. About 5,500 (1.4%) were called active. The inconclusive results got no clear call from the source; some entries with a clear call stand among them for comparison. Calls follow the shape of the dose curve; as a rule, active = well fitted cell-killing curve with a large enough effect; inconclusive = small, poorly fitted or top-dose-only effect, or effect the other way; inactive = flat fitted curve, though single readings scatter. Where the call is inconclusive, the potency comes from a doubtful curve fit.

Assay: qHTS assay for MDR1-selective chemotherapeutics: Primary screen using the parental adenocarcinoma cell KB-3-1; also: nearly all actives have a fitted effect of over 60% in size
Conditions: KB-3-1 viability, CellTiter-Glo ATP luminescence, 72 h; activity change, negative = cytotoxic: at 46.1 µM (top of the series)
Method in brief: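 Cells are dispensed, compounds pinned in, plates held at 37 °C for 72 h, then CellTiter-Glo is added and luminescence read after 10 minutes. Cell line: parental KB-3-1 in phenol-red-free DMEM, 10% FBS.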
% is scaled to controls: 0 for no effect and ±100 for the full control effect; potency is read from the fitted curve at half-maximal effect.

| SMILES | Potency | activity change, negative = cytotoxic |
| --- | --- | --- |
| Cc1ccc(NC(=O)Nc2sc3nc4n(c(=O)c3c2C)CCC(C)CC4)c(Cl)c1 (configuration not stated) | inactive |  |
| Cn1cc(C2=C(c3cn(CCCSC(=N)N)c4ccccc34)C(=O)NC2=O)c2ccccc21 | active: 4.11 µM |  |
| Cc1cc2c(cc1C)N(Cc1ccccc1)C1=NCCCN12 | inconclusive: 29.1 µM [cytotoxic, single point] |  |
| CCC(C)n1c(NC(=O)c2ccccc2)c(C#N)c2nc3ccccc3nc21 (configuration not stated) | inconclusive: 29.1 µM [cytotoxic, single point] |  |
| Cc1cccc(C)c1NC(=O)C(CCc1ccccc1)N1CCC(c2ccccc2)CC1 (configuration not stated) | inconclusive: 29.1 µM [cytotoxic, single point] |  |
| COc1ccc(NS(=O)(=O)c2ccc(-n3cnnn3)cc2)cc1OC | inconclusive: 16.4 µM [cytotoxic, partial curve, poor fit] |  |
| Cc1ccc(C(=O)N/N=C/c2ccc(-c3cccc(C(F)(F)F)c3)o2)cn1 | active: 6.51 µM |  |
| CCOc1ccccc1C1C2CCCCC2(O)CCN1C(=O)c1cccs1 (configuration not stated) | inactive |  |
| c1ccc(-c2nnc3oc(-c4cccs4)nn23)cc1 | inconclusive: 16.4 µM [cytotoxic, single point] |  |
| CN(C)c1cccc(C(=O)N2CCC(c3ccncc3)CC2)c1 | inconclusive: 23.1 µM [cytotoxic, single point] |  |
| O=C(COC(=O)c1ccc(Br)o1)Nc1cccc(S(=O)(=O)N2CCCCC2)c1 | inconclusive: 29.1 µM [rising, single point] |  |
| COc1ccc(Cn2ccc3nc(C)c(C(=O)N4CCN(c5cc(C)ccc5C)CC4)cc3c2=O)cc1 | inconclusive: 29.1 µM [cytotoxic, single point] |  |
| Cc1ccc(S(=O)(=O)NCc2ccc(C(=O)N3CCN(Cc4ccccc4)CC3)cc2)cc1 | active: 23.1 µM |  |
| COc1ccc(CNC(=O)N2CCN(c3ccccc3OC)CC2)cc1 | inactive |  |
| CC12CCC(C(=O)Nc3cc(Cl)ccc3Cl)(C(Br)C1=O)C2(C)C (configuration not stated) | inconclusive: 32.6 µM [cytotoxic, partial curve, poor fit] |  |
| CCCN(C(=O)c1sc2nc3n(c(=O)c2c1C)CCCC3)c1ccccc1C | inconclusive: 20.6 µM [cytotoxic, single point] |  |
| CCN=c1scc(-c2ccccc2)n1/N=C/c1ccccn1 | active: 8.2 µM |  |
| COC(=O)C1(C(=O)OC)c2ccccc2N(S(=O)(=O)c2ccc(C)cc2)C1CC(C)=O (configuration not stated) | inconclusive: 29.1 µM [cytotoxic, single point] |  |
| COC(CNC(=O)c1ccc2c(=O)n(Cc3ccc(Cl)cc3)c(=S)[nH]c2c1)OC | inactive |  |
| CCCn1c(NCc2ccco2)nc2c1c(=O)n(C)c(=O)n2C | inconclusive: 14.6 µM [cytotoxic, partial curve] |  |
| CCc1noc(-c2ccc(N(C)Cc3ccc(OC)cc3)c([N+](=O)[O-])c2)n1 | inconclusive: 20.6 µM [cytotoxic, single point] |  |
| COC(=O)c1c(NC(=O)c2cc3nc(-c4ccc(Br)cc4)cc(C(F)(F)F)n3n2)sc2c1CCCC2 | inactive |  |
| COc1ccc(OC)c(NC(=O)N2CCC(N3CCN(Cc4ccc(F)cc4)C(=O)C3=O)CC2)c1 | inactive |  |

Part of the list above, bar-delimited.
SMILES | Potency | activity change, negative = cytotoxic
c1ccc(-c2nnc3oc(-c4cccs4)nn23)cc1 | inconclusive: 16.4 µM [cytotoxic, single point] | 
CN(C)c1cccc(C(=O)N2CCC(c3ccncc3)CC2)c1 | inconclusive: 23.1 µM [cytotoxic, single point] | 
O=C(COC(=O)c1ccc(Br)o1)Nc1cccc(S(=O)(=O)N2CCCCC2)c1 | inconclusive: 29.1 µM [rising, single point] | 
COc1ccc(Cn2ccc3nc(C)c(C(=O)N4CCN(c5cc(C)ccc5C)CC4)cc3c2=O)cc1 | inconclusive: 29.1 µM [cytotoxic, single point] | 
Cc1ccc(S(=O)(=O)NCc2ccc(C(=O)N3CCN(Cc4ccccc4)CC3)cc2)cc1 | active: 23.1 µM | 
COc1ccc(CNC(=O)N2CCN(c3ccccc3OC)CC2)cc1 | inactive | 
CC12CCC(C(=O)Nc3cc(Cl)ccc3Cl)(C(Br)C1=O)C2(C)C (configuration not stated) | inconclusive: 32.6 µM [cytotoxic, partial curve, poor fit] | 
CCCN(C(=O)c1sc2nc3n(c(=O)c2c1C)CCCC3)c1ccccc1C | inconclusive: 20.6 µM [cytotoxic, single point] | 
CCN=c1scc(-c2ccccc2)n1/N=C/c1ccccn1 | active: 8.2 µM | 
COC(=O)C1(C(=O)OC)c2ccccc2N(S(=O)(=O)c2ccc(C)cc2)C1CC(C)=O (configuration not stated) | inconclusive: 29.1 µM [cytotoxic, single point] | 
COC(CNC(=O)c1ccc2c(=O)n(Cc3ccc(Cl)cc3)c(=S)[nH]c2c1)OC | inactive | 
CCCn1c(NCc2ccco2)nc2c1c(=O)n(C)c(=O)n2C | inconclusive: 14.6 µM [cytotoxic, partial curve] | 
CCc1noc(-c2ccc(N(C)Cc3ccc(OC)cc3)c([N+](=O)[O-])c2)n1 | inconclusive: 20.6 µM [cytotoxic, single point] | 
COC(=O)c1c(NC(=O)c2cc3nc(-c4ccc(Br)cc4)cc(C(F)(F)F)n3n2)sc2c1CCCC2 | inactive | 
COc1ccc(OC)c(NC(=O)N2CCC(N3CCN(Cc4ccc(F)cc4)C(=O)C3=O)CC2)c1 | inactive | 

Continued.

| SMILES | Potency | activity change, negative = cytotoxic |
| --- | --- | --- |
| CS(=O)(=O)c1ccc(Cl)c(NC(=O)C2CCCCN2S(=O)(=O)c2ccccc2)c1 (configuration not stated) | inactive |  |
| CC1CCN(C(=O)c2[nH]cnc2C(=O)Nc2ccc(Cl)cc2)CC1 | inconclusive: 29.1 µM [cytotoxic, single point] |  |
| Cc1cc(=O)n(CC(=O)Nc2cccc([N+](=O)[O-])c2)c(-n2nc(C)cc2C)n1 | inactive |  |
| COc1ccc(-c2cc(C(F)(F)F)nc(SCCC(=O)Nc3cccc(O)c3)n2)cc1 | inactive |  |
| Clc1ccccc1/C=N/N1CCN(Cc2ccccc2)CC1 | inconclusive: 4.11 µM [rising, partial curve] |  |
| O=C(C=Cc1cccc(O)c1)c1ccccc1O | inconclusive: 29.1 µM [cytotoxic, single point] |  |
| Cc1cccc(N(C)S(=O)(=O)c2c[nH]c3ccc([N+](=O)[O-])cc23)c1 | inconclusive: 25.9 µM [cytotoxic, partial curve, poor fit] |  |
| COC(=O)c1[nH]c2ccccc2c1NC(=O)Oc1ccccc1 | inactive |  |
| CCCCC(=O)NC(c1ccccc1Cl)c1ccc2cccnc2c1O (configuration not stated) | inconclusive: 18.4 µM [cytotoxic, single point] |  |
| CCC(C)Sc1ccc(-c2nc3ccccn3c2NCc2ccccc2)cc1OC (configuration not stated) | inconclusive: 23.1 µM [cytotoxic, single point] |  |
| COc1ccc(S(=O)(=O)N2CCCc3ccccc32)cc1OC | inconclusive: 29.1 µM [cytotoxic, single point] |  |
| O=C(NCCCn1ccnc1)c1cc2c(ccc3ccccc32)o1 | inconclusive: 1.3 µM [cytotoxic, partial curve, poor fit] |  |
| COc1ccc(OC)c(NC(=O)c2nnn(Cc3ccc(Br)cc3F)c2N)c1 | inconclusive: 20.6 µM [cytotoxic, single point] |  |
| COc1cc(OC)cc(C(=O)NNC(=O)c2nn(C)c(=O)c3ccccc23)c1 | inconclusive: 1.46 µM [rising, full curve] |  |
| CN1CCc2c(OCC(=O)N3N=C(c4cccs4)CC3c3ccc(F)cc3)cccc2C1=O (configuration not stated) | inconclusive: 29.1 µM [cytotoxic, single point] |  |
| COc1ccc(/C=C/C(=O)c2ccc(NS(=O)(=O)c3ccc(C)cc3)cc2)cc1O | inconclusive: 25.9 µM [cytotoxic, partial curve, poor fit] |  |
| O=C(c1ccc(Cn2c(=O)[nH]c3ccccc3c2=O)cc1)N1CCN(c2ccccc2)CC1 | inconclusive: 18.4 µM [cytotoxic, single point] |  |
| O=C(Nc1ccc([N+](=O)[O-])cc1Cl)c1ccccc1O | inconclusive: 2.59 µM [cytotoxic, partial curve, poor fit] and active: 2.91 µM |  |
| Clc1ccc(CSc2nncn2-c2ccc3c(c2)OCCO3)cc1 | active: 13 µM |  |
| CCN1C(=O)[C@H]2[C@@H](c3ccc(-c4ccc(OC)cc4)c(OC)c3)N3CCCC[C@@]3(C(=O)OC)[C@H]2C1=O | inconclusive: 29.1 µM [cytotoxic, single point] |  |
| CCC(C(=O)NC1CCCC1)n1c(-c2cc3ccccc3[nH]2)nc2ccccc21 (configuration not stated) | inconclusive: 29.1 µM [cytotoxic, single point] |  |
| CCCCCCSc1ccc([C@H]2N[C@@](Cc3ccccc3)(C(=O)OC)[C@H]3C(=O)N(CC)C(=O)[C@@H]23)cc1 | inconclusive: 23.1 µM [cytotoxic, single point] |  |
| O=S(=O)(Nc1cc(C(F)(F)F)ccc1N1CCOCC1)c1ccc2ccccc2c1 | inconclusive: 32.6 µM [cytotoxic, single point] |  |

| SMILES | Potency | activity change, negative = cytotoxic |
| --- | --- | --- |
| CCn1cc(C(=O)O)c(=O)c2cc(F)c(N3CCN(S(=O)(=O)c4ccc(NC(C)=O)cc4)CC3)cc21 | inconclusive: 29.1 µM [rising, single point] |  |
| COc1ccc(NC(=O)N(Cc2cc3ccc(OC)cc3[nH]c2=O)CC2CCCO2)cc1 (configuration not stated) | inconclusive: 20.6 µM [cytotoxic, single point] |  |
| COc1ccc2c(c1)[C@]1(C[C@H](O)CO1)C(=O)N2C | inactive |  |
| CN(C)c1cccc2c1c(NC(=O)Nc1ccccc1)nn2C |  | inconclusive: -2.1% |
| C=CCN1CC(=O)N2C(c3ccccc3)c3[nH]c4ccccc4c3C[C@H]2C1=O (some centres not stated) | active: 6.51 µM |  |
| O=C(Nc1cc(S(=O)(=O)N2CCCC2)ccc1OCC(F)(F)F)c1ccncc1 | inactive |  |
| CN(C)c1ccc(/C=C(\C#N)c2ccccn2)cc1 | inconclusive: 20.6 µM [cytotoxic, partial curve] |  |
| Cc1ccc(-n2c(SCCC(C)C)nc3sc4c(c3c2=O)CC(C)(C)OC4)cc1 | inactive |  |
| Cc1cccc(/C(N)=N/OC(=O)c2ccoc2C)c1 | inconclusive: 29.1 µM [cytotoxic, single point] |  |
| COc1ccc(N2CCN(C(=O)COc3ccc4c(C)cc(=O)oc4c3)CC2)cc1 | inactive |  |
| Cc1ccc(S(=O)(=O)N2CCOCC2)cc1C(=O)Nc1ccc(-c2cn3ccsc3n2)cc1 | inconclusive: 22.4 µM [cytotoxic, single point] |  |
| COc1cc(CNC(=O)OCC(C)C)cc(OC)c1OC | inactive |  |
| CCOCCCNC(=O)C(NC(=O)c1ccc2c(c1)OCO2)c1ccc(Cl)cc1 (configuration not stated) | inactive |  |
| O=C(Cn1c2[n+](c3ccc(C(F)(F)F)cc31)CCCCC2)c1ccc2c(c1)OCCO2 |  | inconclusive: -7.4% |
| N#CC1=C(N)Oc2ccc3ccccc3c2C1c1cccnc1 (configuration not stated) | inconclusive: 29.1 µM [cytotoxic, single point] |  |
| CN(C)CCCNC(=O)c1cc(C(=O)c2cccc(Cl)c2Cl)c[nH]1 | inactive |  |
| OCCNCc1cc(Br)ccc1OCc1ccccc1Cl | inconclusive: 18.4 µM [cytotoxic, single point] |  |
| O=C(N[C@@H](Cc1ccccc1)C(=O)NC1CCCCCC1)c1ccco1 | inconclusive: 32.6 µM [cytotoxic, single point] |  |
| CC(C)c1ccccc1OCC(O)CN(CC(O)COc1cccc2ccccc12)C(C)C (configuration not stated) | inconclusive: 29.1 µM [cytotoxic, single point] |  |
| O=C(CSc1nnc(-c2ccco2)c(-c2ccco2)n1)Nc1ccccc1 | inactive |  |
| CC(C)=CCc1c2c(c3occ(-c4ccc(O)c(O)c4)c(=O)c3c1O)C=CC(C)(C)O2 | inconclusive: 29.1 µM [cytotoxic, single point] |  |
